Results published in US7053194.
No constants are given. Whether binding was seen depends on the method and setting. Binding seen in cells or lysates may run through a third protein. Some results given as binding are weak or reduced against the parent protein; the word gives no strength.

Biological target: temperature-sensitive p53 (Valine 135 allele) of murine Va15 cells (UniProt P02340)
Assay: reciprocal co-immunoprecipitation from Va15 cells with mAb 421, mSin3a western

B1: mSin3a (endogenous, murine Va15 cells) (protein, UniProt Q60520 1-1274, looked up)
chain: MKRRLDDQESPVYAAQQRRIPGSTEAFSHQHRVLAPAPPVYEAVSETMQSATGIQYSVAPNYQVSAVPQSSGSHGPAIAAVHSSHHHPTAVQPHGGQVVQSHAHPAPPVAPVQGQQQFQRLKVEDALSYLDQVKLQFGSQPQVYNDFLDIMKEFKSQSIDTPGVISRVSQLFKGHPDLIMGFNTFLPPGYKIEVQTNDMVNVTTPGQVHQIPTHGIQPQPQPPPQHPSQPSSQSAPTPAQPAPQPTAAKVSKPSQLQAHTPASQQTPPLPPYASPRSPPVQPHTPVTISLGTAPSLQNNQPVEFNHAINYVNKIKNRFQGQPDIYKAFLEILHTYQKEQRNAKEAGGNYTPALTEQEVYAQVARLFKNQEDLLSEFGQFLPDANSSVLLSKTTAEKVDSVRNDHGGTVKKPQLNNKPQRPSQNGCQIRRHSGTGATPPVKKKPKLMSLKESSMADASKHGVGTESLFFDKVRKALRSAEAYENFLRCLVIFNQEVISRAELVQLVSPFLGKFPELFNWFKNFLGYKESVHLESFPKERATEGIAMEIDYASCKRLGSSYRALPKSYQQPKCTGRTPLCKEVLNDTWVSFPSWSEDSTFVSSKKTQYEEHIYRCEDERFELDVVLETNLATIRVLEAIQKKLSRLSAEEQAKFRLDNTLGGTSEVIHRKALQRIYADKAADIIDGLRKNPSIAVPIVLKRLKMKEEEWREAQRGFNKVWREQNEKYYLKSLDHQGINFKQNDTKVLRSKSLLNEIESIYDERQEQATEENAGVPVGPHLSLAYEDKQILEDAAALIIHHVKRQTGIQKEDKYKIKQIMHHFIPDLLFAQRGDLSDVEEEEEEEMDVDEATGAPKKHNGVGGSPPKSKLLFSNTAAQKLRGMDEVYNLFYVNNNWYIFMRLHQILCLRLLRICSQAERQIEEENREREWEREVLGIKRDKSDSPAIQLRLKEPMDVDVEDYYPAFLDMVRSLLDGNIDSSQYEDSLREMFTIHAYIAFTMDKLIQSIVRQLQHIVSDEVCVQVTDLYLAENNNGATGGQLNSQTSRSLLESAYQRKAEQLMSDENCFKLMFIQSQGQVQLTVELLDTEEENSDDPVEAERWSDYVERYMSSDTTSPELREHLAQKPVFLPRNLRRIRKCQRGREQQEKEGKEGNSKKTMENVESLDKLECRFKLNSYKMVYVIKSEDYMYRRTALLRAHQSHERVSKRLHQRFQAWVDKWTKEHVPREMAAETSKWLMGEGLEGLVPCTTTCDTETLHFVSINKYRVKYGTVFKAP
binding: binds
